Data taken from the supplement of paper PMC8007513.
This is one part of the list. Many values rest on one well or one pass, so single values are uncertain.

What follows are compounds tested on Saccharomyces cerevisiae BY4743 (assay: growth (OD600) relative to untreated control; higher = less growth inhibition). Details: compound concentration: 133 uM; 20 h.
Experimental: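 NMCCC compounds (133 uM, no IPBC) tested alone against Saccharomyces cerevisiae BY4743 in YPD, 96-well plates, starting OD600 ~0.1. Growth was read as OD600 at 20 h and expressed as % of the untreated control. Single pass.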

Structure (SMILES)	growth
N#Cc1ccsc1NC(=O)CCSc1nnnn1C1CC1	89.5%
CCOc1ccc(OCC)c(NC(=O)Nc2ccc3c(c2)N(C)C(=O)CS3)c1	94.2%
CS(=O)(=O)c1ccc(-c2cccc(NC(=O)C3CCCO3)c2)nn1 (stereo not drawn)	99.2%
O=C(CNC(=O)c1sc2ccccc2c1Cl)OC1CCOC1=O (stereo not drawn)	104%
CC(C)C1C(=O)Nc2ccc(S(=O)(=O)N3CCCCCC3)cc21 (stereo not drawn)	109%
CCOC(=O)C(=O)N1\N=C(/CC1(O)C(C)(C)C)C(F)(F)F (stereo not drawn)	95.7%
CC(C)CNC(=O)c1cc(-c2ccc(Cl)c(Cl)c2)on1	97.7%
Cn1cc(S(=O)(=O)N2CCCC2)cc1C(=O)OC(c1cc(F)cc(F)c1)C(F)(F)F (stereo not drawn)	98.5%
COc1ccc(-c2ccc3c(N)c(C(=O)NC(C)C)sc3n2)cc1OC	109%
Cc1nc(COC(=O)C(C)Oc2ccc(C#N)cc2)nc2ccccc12 (stereo not drawn)	101%
CC(C)[C@H](NS(=O)(=O)c1ccc2c(c1)OCCO2)C(=O)NC1CCCCCC1	93.7%
CCOC(=O)c1c(NC(=O)c2ccccc2)oc2cccnc12	76.4%
CC(C)C1=CC=CC(=C1NC(=O)CN(C)\C2=N\[S](=O)(=O)C3=CC=CC=C23)C(C)C	98.4%
Cc1ccc(S(=O)(=O)N(C)c2ccc(C(=O)Nc3ncccc3O)cc2)cc1	104%
CNc1nc(-c2ccc(OC(F)F)c(OC)c2)cs1	106%
O=C(CCc1ccc(S(=O)(=O)N2CCCCCC2)cc1)OCC(=O)N1CCNC1=O	117%
COc1cc(Cl)c(C)cc1NC(=O)NCc1noc2ccccc12	103%
COC(=O)c1cc(C)nc2c1cnn2-c1ccc(F)cc1	114%
CCOC(=O)c1[nH]c(C)c(C(=O)Nc2c(C)cc(C)cc2C)c1C	88.1%

Structure (SMILES)	growth
CC(=O)c1c(C)[nH]c(C(=O)OCC(=O)NCc2ccccc2Cl)c1C	96.4%
CCOC(=O)c1c(NC(=O)c2ccccc2)sc(C(C)=O)c1-c1ccccc1	78.8%
CN1C(=O)N(C)\C(=C(C#N)/C1=O)OC2=CC=CC3=C2OC(C)(C)C3	117%
CCN\1C(=O)NC(=O)\C(=C1N)SC2=NC3=CC=CC=C3S2	112%
O=C(Nc1nccs1)c1cccnc1	100%
CCOC(=O)C(NC(=O)Cc1ccccc1)(Nc1ccc(S(N)(=O)=O)cc1)C(F)(F)F (stereo not drawn)	94.8%
CCOC(=O)c1c(-c2ccccc2)csc1NC(=O)CCSc1nnc(C)s1	98.6%
COCCN(CC(=O)Nc1cccc(C)c1C)C(=O)CCc1c[nH]c2ccccc12	117%
CCN(CC)[S](=O)(=O)C1=CC=C(C=C1)C(=O)N\C2=C(/C(C)C)N(C)N(C2=O)C3=CC=CC=C3	107%
COC1=CC=C(C=C1OC)C(=O)N2CCN(CC2)C/3=C(\Cl)C(=O)N(C)/N=C3	104%
CCCCn1nc(C)c(C(=O)NC(c2nc3ccccc3[nH]2)C(C)C)c1Cl (stereo not drawn)	111%
CCc1cccc(C)c1NC(=O)Cn1c(C(=O)OC)cc2sccc21	83.3%
CCCCN1\C(=N/[S](=O)(=O)C2=CC=CC=C12)SCC(=O)C3=CC=CC=C3	91.9%
CC(Nc1cccc(C(N)=O)c1)C(=O)N1CCN(C(=O)c2ccco2)CC1 (stereo not drawn)	99.9%
CCN(CC)S(=O)(=O)c1cccc(C(=O)N[C@H](C(=O)Nc2ccc3c(c2)OCCO3)C(C)C)c1	107%
CC1=CC=CC=C1CCNC(=O)CN2\N=C(/OC2=O)C3=CC=CC=C3	103%
CCOC(=O)c1c(NC(=O)CN2CC(C)OC(C)C2)sc(C(=O)NC)c1C (stereo not drawn)	64.4%
CCOC(=O)c1c(C)[nH]c(C)c1S(=O)(=O)NCC(=O)N1CCN(CC)CC1	111%
CCOC(=O)C/1=C(\C)OC(=O)/C(=C1)NC(=O)C2=CC=CC=C2OC	87.6%

Compounds from the list above that have an aryl thioether with sulfur outside any ring (3):
Structure (SMILES)	growth
N#Cc1ccsc1NC(=O)CCSc1nnnn1C1CC1	89.5%
CCN\1C(=O)NC(=O)\C(=C1N)SC2=NC3=CC=CC=C3S2	112%
CCOC(=O)c1c(-c2ccccc2)csc1NC(=O)CCSc1nnc(C)s1	98.6%
